# Test results: PubChem BioAssay AID624297 (National Center for Advancing Translational Sciences (NCATS), 2012)
# Out of some 340,000 compounds screened, about 6,200 (1.8%) were called active. The shares of active, inactive and inconclusive entries below differ from those in the screen. Calls come from the whole dose curve; as a rule, active = well fitted activation curve with a large enough effect; inconclusive = small, poorly fitted or top-dose-only effect; inactive = no such curve, though single readings can be large or run the other way. Potencies beside an inconclusive call are fits to weak or partial responses and may not hold up.
# Experiment: A quantitative high throughput screen for small molecules that induce DNA re-replication in SW480 colon adenocarcinoma cells. For re-replication activation: % of control where 0% means no effect. Note: nearly all actives have a fitted effect of over 55% in size.
# Details: Hoechst DNA content imaging, 48 h; re-replication activation: at 46.1 µM (top of the series) unless noted
# How it was run: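 SW480 cells exposed to compounds for 48 hr at 37 C, 5% CO2, then Hoechst-stained 40 min. Nuclear DNA content imaged by fluorescence scanning (405 nm excitation, 500-530 nm emission); re-replication scored as increased high-intensity nuclei.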
# Potency is the fitted concentration of half-maximal effect.
Compound,Potency,re-replication activation
CC1(c2ccc3ccccc3c2)NC(=O)N(CC(=O)N2CCN(Cc3ccccc3)CC2)C1=O (centres undefined),"inconclusive: 4.11 µM [activator, single point]",
CC1CCCN(CC(=O)Nc2cc(Cl)ccc2Oc2ccccc2)C1 (centres undefined),"inconclusive: 16.4 µM [activator, single point]",
CCNC(=O)c1cccc(S(=O)(=O)N2CCCCCC2)c1,,inactive: -689%
Cc1ccc2nc(-c3ccccc3)c(CN3CCOCC3)n2c1,,inactive: -12.6%
CC(Nc1nc(-c2ccccc2O)nc2ccccc12)c1ccccc1 (centres undefined),"inconclusive: 7.31 µM [activator, partial curve, poor fit]",
CC(=O)Nc1nc(C)c(-c2csc(Nc3ccc(S(N)(=O)=O)cc3)n2)s1,"inconclusive: 29.1 µM [activator, single point]",
Cc1ccc(S(=O)(=O)c2c(C)nn(-c3ccccc3)c2OC(=O)c2ccco2)cc1,"inconclusive: 2.06 µM [activator, partial curve, poor fit]",
COc1ccc(-c2cc3c(=O)n(CC(=O)NCCCN4CCC(N5CCCCC5)CC4)nc(C)n3n2)cc1,"inconclusive: 29.1 µM [activator, single point]",
COc1ccccc1/C=N/NC(=O)c1ccccc1NS(=O)(=O)c1ccc(C)cc1,,inactive: -37.6%
CC(C)(Cc1ccc(O)cc1)NC(=O)CC(=O)N/N=C/c1ccc(Cl)cc1,"inconclusive: 16.4 µM [activator, single point]",
Cc1cccc(COCC(CC(C)C)N2CCN(C(=O)c3ccc(C(F)(F)F)cc3)CCC2=O)c1 (centres undefined),"inconclusive: 20.6 µM [activator, partial curve, poor fit]",
COc1ccc(-c2cc(C)no2)cc1S(=O)(=O)NCC1CCN(Cc2cc(C)ccc2C)CC1,"inconclusive: 18.4 µM [activator, single point]",
Cc1nn(CC(=O)NCCCN2CCC(Cc3ccccc3)CC2)c(=O)c2cc(-c3ccccc3)nn12,"inconclusive: 29.1 µM [activator, single point]",
COC(=O)c1sc(N)c(C(=O)OC)c1Cn1ncc(Cl)c(Cl)c1=O,"inconclusive: 20 µM [activator, partial curve, poor fit]",
Fc1ccc(C2N(c3ccccc3)C(=S)N3CCCN23)cc1 (centres undefined),"inconclusive: 18.4 µM [activator, partial curve, poor fit]",
c1ccc(Nc2cc(-c3ccccc3)nc3ncnn23)cc1,"inconclusive: 29.1 µM [activator, single point]",
Cn1c(Sc2ccc(Cl)cc2)c(C=O)c2ccccc21,"inconclusive: 32.6 µM [activator, partial curve, poor fit]",
CC(C)Cn1c(SC(C)C(=O)Nc2ccc3c(c2)OCCO3)nc2ccccc2c1=O (centres undefined),,inactive: 7.06%
Cc1ccc(C(=O)C2CC2)cc1C,,inactive: 7.71%
O=C(CNC(=O)c1ccc2c(c1)OCO2)N/N=C(Br)/C=C/c1ccccc1,"inconclusive: 20.6 µM [activator, single point]",
Cc1c(C(=O)N(C)c2ccc(Cl)cc2)cnn1-c1ccccc1,"inconclusive: 0.206 µM [activator, full curve, poor fit]",
c1ccc(-n2cc(CN3CCC(N4CCOCC4)CC3)c(-c3ccc4c(c3)OCO4)n2)cc1,"inconclusive: 29.1 µM [activator, single point]",
CCCC[C@@H]1CCCO[C@@](C(=O)NCc2ccccn2)(C(F)(F)F)C1,,inactive: -11.4%

Compound,Potency,re-replication activation
CCN(c1cccc(C)c1)C1C(=O)c2ccccc2N1C(C)=O (centres undefined),,inactive: -9.52%
CC1CN(c2sc(S(C)(=O)=O)nc2S(=O)(=O)c2ccc(Cl)cc2)CC(C)O1 (centres undefined),"inconclusive: 18.4 µM [activator, single point]",
CC(C)c1ccc(-c2c(C#N)c(N)nc(SCC(=O)N3CCCCC3)c2C#N)cc1,"inconclusive: 16.4 µM [activator, partial curve]",
CCCC(=O)Nc1cccc(NC(=O)CN2CCN(c3ccccc3OC)CC2)c1,"inconclusive: 6.51 µM [activator, full curve, poor fit]",
Cc1[nH]c(=O)[nH]c(=O)c1/C=N/NC(=O)CCNC(=O)OC(C)(C)C,,inactive: -16.9%
N=c1c(C(=O)NC2CCCCC2)cc2c(=O)n3ccccc3nc2n1Cc1ccccc1,active: 9.2 µM,
COc1ccc(SN=C2C(C)=CC(=O)C=C2C)cc1,"inconclusive: 29.1 µM [activator, single point]",
CC1(C)Cc2c(sc(NC(=O)c3ccccc3Cl)c2C(=O)O)CO1,,inactive: -4.86%
N#Cc1cnc2nc(SCc3ccccc3)nn2c1,,inactive: 7.95%
O=C(N/N=C/c1ccc2nccnc2c1)c1ccncc1,,inactive: 1.86%
COc1ccccc1NC(=S)NCCSc1ccc(Cl)cc1,"inconclusive: 0.0065 µM [activator, full curve, poor fit]",
O=C(Nc1cccc(NC(=O)c2cccs2)c1)c1ccc([N+](=O)[O-])o1,"inconclusive: 8.2 µM [activator, partial curve, poor fit]",
COCCn1c(=O)[nH]c2cc(C(=O)NCCN3CCN(c4ccc(OC)cc4)CC3)ccc2c1=O,,inactive: -1.83%
COc1ccc(-c2nc(NC(=O)C3CC(=O)N(c4ccc5c(c4)OCCO5)C3)sc2C)cc1 (centres undefined),active: 4.11 µM,
O=C(O)CSc1cc(NS(=O)(=O)c2cccc([N+](=O)[O-])c2)c2ccccc2c1O,active: 20.6 µM,
O=C(Nc1nc2cc3c(cc2s1)OCO3)c1ccco1,"inconclusive: 32.6 µM [activator, single point]",
CC(C(=O)Nc1ccc(C(F)(F)F)cc1)N(C)CC(=O)N1CCN(Cc2ccccc2)CC1 (centres undefined),,inactive: -4.8%
NCCCCCc1nnc(SCc2ccc(Cl)cc2Cl)o1,,inactive: -3.05%
CC(CC(=O)Nc1nc2ccccc2[nH]1)c1ccccc1 (centres undefined),,inactive: -1.26%
Cc1ccccc1N1CCN(C(=O)c2cc(C3CC3)nn2-c2ccccc2)CC1,,inactive: 6.14%
N/C(=N\OC(=O)c1cc([N+](=O)[O-])ccc1Cl)c1cccnc1,"inconclusive: 20.6 µM [activator, single point]",
COc1ccc(C(C(=O)NC2CCCCC2)N(C(=O)CCl)c2ccc(Cl)cc2)cc1 (centres undefined),"inconclusive: 0.501 µM [activator, full curve, poor fit]",
COC(=O)[C@H](Cc1ccc(O)cc1)NC(=O)Cn1cnc2c(SC)nc(N)nc21,,inactive: -0.773%

Compound,Potency,re-replication activation
N#Cc1cc(-c2ccccc2)[nH]c1-c1nccc2ccccc12,"inconclusive: 29.1 µM [activator, single point]",
N#CN=C1SCCS1,"inconclusive: 29.1 µM [activator, single point]",
CN(C)S(=O)(=O)c1cccc(C(=O)Nc2n[nH]c(C(F)(F)F)n2)c1,,inactive: -8.25%
O=C(C[C@H]1C[C@H](C(=O)N2CCOCC2)[C@@]2(CCC3CCCC3)c3[nH]c4cc(-c5ccco5)ccc4c3CCN2C1=O)NCCN1CCOCC1,"inconclusive: 16.4 µM [activator, partial curve, poor fit]",
CCCCCOCC1CC(C/C(C)=N/NC(N)=S)C(=O)O1 (centres undefined),"inconclusive: 29.1 µM [activator, single point]",
Cc1cc(=O)oc2c(C)c(OCC(=O)NCc3ccccn3)ccc12,"inconclusive: 9.2 µM [activator, single point]",
NC(=O)NC(=O)CN1c2cccc3cccc(c23)S1(=O)=O,,inactive: -15.3%
C/C(O)=c1/cnc2nc3ccccc3n2c1=O,"inconclusive: 29.1 µM [activator, single point]",
CCCCCC(=O)Nc1nc2ccccc2[nH]1,"inconclusive: 29.1 µM [activator, single point]",
COc1ccccc1NC(=O)Cn1c2ccccc2c2nc3n(c(=O)c21)CCS3,"inconclusive: 32.6 µM [activator, partial curve, poor fit]",
COc1cccc(/C=N/NC(=O)N/N=C/c2cccc(OC)c2O)c1O,"inconclusive: 20.6 µM [activator, single point]",
NS(=O)(=O)c1cc(Cl)c(Cl)c(S(N)(=O)=O)c1,"inconclusive: 0.794 µM [activator, single point]",
CCOc1ccc(S(=O)(=O)NCCSc2ccccc2)cc1,,inactive: -0.257%
COc1cccc(Nc2nc(-c3cccs3)nc3ccccc23)c1,"inconclusive: 29.1 µM [activator, single point]",
O=C(Nc1nnc(-c2ccccc2)o1)NC1CCCCC1,,inactive: -1.04%
COc1ccccc1/C=C/CN1CCC(Oc2ccc(C(=O)N3CCCCC3)cc2)CC1,"inconclusive: 3.66 µM [activator, full curve]",
Cc1cccc(COCC(Cc2ccccc2)N2CCN(C(=O)c3cccc(C)c3)CCC2=O)c1 (centres undefined),"inconclusive: 29.1 µM [activator, single point]",
CCOC(=O)C1CCCN(C(=O)C2COc3ccccc3O2)C1 (centres undefined),"inconclusive: 6.51 µM [activator, single point]",
C/C=C1\COC(C(=O)NCc2ccccc2)(C(F)(F)F)C=C1C=C1CCCCC1 (centres undefined),,inactive: 1.42%
O=C(CCS(=O)(=O)c1ccc(F)cc1)Nc1nnc(-c2ccc(F)cc2)o1,"inconclusive: 22.4 µM [activator, single point]",
O=C(NCc1ccccn1)C1CCN(C(=O)c2cc3sccc3n2Cc2ccc(F)cc2)CC1,"inconclusive: 6.51 µM [activator, single point]",
O=C(Nc1nc(-c2ccc([N+](=O)[O-])cc2)cs1)c1c(F)cccc1F,"inconclusive: 0.082 µM [activator, partial curve, poor fit]",
COc1nc(-c2ccc(Cl)cc2)ccc1-c1noc(-c2ccco2)n1,,inactive: -3.14%

# In another format: results already given.
Compound | Potency | re-replication activation
CCCCCOCC1CC(C/C(C)=N/NC(N)=S)C(=O)O1 (centres undefined) | inconclusive: 29.1 µM [activator, single point] | 
Cc1cc(=O)oc2c(C)c(OCC(=O)NCc3ccccn3)ccc12 | inconclusive: 9.2 µM [activator, single point] | 
NC(=O)NC(=O)CN1c2cccc3cccc(c23)S1(=O)=O |  | inactive: -15.3%
C/C(O)=c1/cnc2nc3ccccc3n2c1=O | inconclusive: 29.1 µM [activator, single point] | 
CCCCCC(=O)Nc1nc2ccccc2[nH]1 | inconclusive: 29.1 µM [activator, single point] | 
COc1ccccc1NC(=O)Cn1c2ccccc2c2nc3n(c(=O)c21)CCS3 | inconclusive: 32.6 µM [activator, partial curve, poor fit] | 
COc1cccc(/C=N/NC(=O)N/N=C/c2cccc(OC)c2O)c1O | inconclusive: 20.6 µM [activator, single point] | 
NS(=O)(=O)c1cc(Cl)c(Cl)c(S(N)(=O)=O)c1 | inconclusive: 0.794 µM [activator, single point] | 
CCOc1ccc(S(=O)(=O)NCCSc2ccccc2)cc1 |  | inactive: -0.257%
COc1cccc(Nc2nc(-c3cccs3)nc3ccccc23)c1 | inconclusive: 29.1 µM [activator, single point] | 
O=C(Nc1nnc(-c2ccccc2)o1)NC1CCCCC1 |  | inactive: -1.04%
COc1ccccc1/C=C/CN1CCC(Oc2ccc(C(=O)N3CCCCC3)cc2)CC1 | inconclusive: 3.66 µM [activator, full curve] | 
Cc1cccc(COCC(Cc2ccccc2)N2CCN(C(=O)c3cccc(C)c3)CCC2=O)c1 (centres undefined) | inconclusive: 29.1 µM [activator, single point] | 
CCOC(=O)C1CCCN(C(=O)C2COc3ccccc3O2)C1 (centres undefined) | inconclusive: 6.51 µM [activator, single point] | 
C/C=C1\COC(C(=O)NCc2ccccc2)(C(F)(F)F)C=C1C=C1CCCCC1 (centres undefined) |  | inactive: 1.42%
O=C(CCS(=O)(=O)c1ccc(F)cc1)Nc1nnc(-c2ccc(F)cc2)o1 | inconclusive: 22.4 µM [activator, single point] | 
O=C(NCc1ccccn1)C1CCN(C(=O)c2cc3sccc3n2Cc2ccc(F)cc2)CC1 | inconclusive: 6.51 µM [activator, single point] | 
O=C(Nc1nc(-c2ccc([N+](=O)[O-])cc2)cs1)c1c(F)cccc1F | inconclusive: 0.082 µM [activator, partial curve, poor fit] | 
COc1nc(-c2ccc(Cl)cc2)ccc1-c1noc(-c2ccco2)n1 |  | inactive: -3.14%
